Values of other authors in patent US7998971B2, “Combinations containing a 4-acylaminopyridine derivative” (BrainCells Inc., priority 2006, dated 2011).
The name of at least one read-out is uncertain.

Conditions: cited from earlier work

SMILES	permeability across the blood-brain barrier
N[C@@]1(C(=O)O)CO[C@H]2[C@H](C(=O)O)[C@H]21 [LY379268, (−)-2-Oxa-4-aminobicyclohexane-4,6-dicarboxylic acid]	readily permeable
N[C@](CC1c2ccccc2Oc2ccccc21)(C(=O)O)[C@H]1C[C@@H]1C(=O)O [LY341495, (2S)-2-amino-2-(1S,2S-2-carboxycycloprop-1-yl)-3-(xanth-9-yl) propanoic acid]	readily permeably
